Reference: patent US20060073152A1
These are yes or no findings as the source states them, for the method shown. Some entries that bind do so weakly or less than the wild type. Sequences can lack the tags named with a protein.

Amino acid sequences for entries named in this document (tags omitted). Residues count along the entry.
UniProt P02768, residues 25-609: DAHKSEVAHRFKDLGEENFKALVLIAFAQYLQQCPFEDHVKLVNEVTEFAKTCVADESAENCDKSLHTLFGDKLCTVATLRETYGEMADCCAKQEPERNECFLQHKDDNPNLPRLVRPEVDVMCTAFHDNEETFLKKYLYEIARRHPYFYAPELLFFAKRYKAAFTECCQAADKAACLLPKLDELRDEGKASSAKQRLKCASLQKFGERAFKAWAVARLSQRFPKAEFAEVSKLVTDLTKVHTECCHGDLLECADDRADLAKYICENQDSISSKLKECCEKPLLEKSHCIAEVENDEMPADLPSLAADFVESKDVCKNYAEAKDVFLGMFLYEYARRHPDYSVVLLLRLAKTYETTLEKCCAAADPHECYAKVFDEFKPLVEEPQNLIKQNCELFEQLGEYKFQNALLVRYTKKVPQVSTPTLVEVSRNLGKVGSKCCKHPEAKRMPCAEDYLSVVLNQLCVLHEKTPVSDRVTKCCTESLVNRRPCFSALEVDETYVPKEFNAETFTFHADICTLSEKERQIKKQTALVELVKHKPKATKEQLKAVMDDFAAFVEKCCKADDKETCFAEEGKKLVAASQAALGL

Target: human serum albumin (human) (UniProt P02768)
Assay: phage binding

binding: binds
Binder: GRSFCMDWPAHKSCTPLML [HA-H83]
